In this assay the test system is L1210 leukemia ip in BDF1 mice, survival T/C. In words: NCI In Vivo Anticancer Drug Screen. Data for tumor model L1210 Leukemia (intraperitoneal) in B6D2F1 (BDF1) mice. To be noted: T/C endpoint: mean survival time, higher T/C = longer survival.
The mark [1] stands for this setting: dose: 200.0 mg/kg/injection, schedule: Q01DX001 (ip), vehicle: saline.
The mark [2] stands for this setting: dose: 400.0 mg/kg/injection, schedule: Q01DX001 (ip), vehicle: saline.
[3] abbreviates: dose: 200.0 mg/kg/injection, schedule: Q01DX009 (ip), vehicle: saline with Tween-80.
The mark [4] stands for this setting: dose: 400.0 mg/kg/injection, schedule: Q04DX003 (ip), vehicle: saline with Tween-80.
[5] abbreviates: dose: 100.0 mg/kg/injection, schedule: Q01DX009 (ip), vehicle: Klucel (hydroxypropylcellulose) (HPC).
[6] abbreviates: dose: 200.0 mg/kg/injection, schedule: Q01DX009 (ip), vehicle: Klucel (hydroxypropylcellulose) (HPC).
Where [7] appears, read: dose: 300.0 mg/kg/injection, schedule: Q01DX001 (ip), vehicle: carboxymethylcellulose (CMC).
Where [8] appears, read: dose: 100.0 mg/kg/injection, schedule: Q04DX002 (ip), vehicle: Klucel (hydroxypropylcellulose) (HPC).
The mark [9] stands for this setting: dose: 200.0 mg/kg/injection, schedule: Q04DX002 (ip), vehicle: Klucel (hydroxypropylcellulose) (HPC).
Setting [10] is: dose: 400.0 mg/kg/injection, schedule: Q04DX002 (ip), vehicle: Klucel (hydroxypropylcellulose) (HPC).
Setting [11] is: dose: 200.0 mg/kg/injection, schedule: Q04DX002 (ip), vehicle: saline.

The list is a part of this screen's results and no random one: it is rich in T/C values a quarter to a half above the control, in often repeated tests (any T/C) and in doses without a T/C. Other doses and runs of a compound stand elsewhere. T/C gives the treated animals as a percentage of the vehicle group. Some doses have a count of surviving animals in place of a T/C: the source files T/C as zero there, which appears to mark a toxic dose or a test without result, not a measured value. Some survivor counts are full or nearly so, which does not show that the dose was tolerated: the source hardly ever lists a survival T/C far under the control, and the zero likely stands for such cases as well. Counts of survivors are from the toxicity check (mostly the fifth day) where no day follows; animals may have died later. Schedules are NCI's codes, read here as Q, the interval in days (D) or hours (H), X, the number of doses. Some schedule codes hold Z or #, which are not explained here. Some entries were tested several times; the values are given in rising order.

As to `CCC[CH2][Sn]1([CH2]CCC)[O]CC[S]1`, the survivor count by setting is: (dose: 10.0 mg/kg/injection, schedule: Q01DX001 (ip), vehicle: saline) 1 of 4; (dose: 20.0 mg/kg/injection, schedule: Q01DX001 (ip), vehicle: saline) 0 of 4; (dose: 40.0 mg/kg/injection, schedule: Q01DX001 (ip), vehicle: saline) 0 of 4; (dose: 50.0 mg/kg/injection, schedule: Q01DX001 (ip), vehicle: saline) 0 of 4; (dose: 80.0 mg/kg/injection, schedule: Q01DX001 (ip), vehicle: saline) 0 of 4; (dose: 100.0 mg/kg/injection, schedule: Q01DX001 (ip), vehicle: saline) 0 of 4. The survivor count under setting [1] is reported as 0 of 4 and the survivor count under setting [2] was 0 of 4.

In the case of `CC1(C)CCOc2ccccc21`, the survivor count under setting [3] is 3 of 3.

For `O=CC(Br)C(Br)c1ccccc1` (stereo not given), the survivor count reads like this: (dose: 200.0 mg/kg/injection, schedule: Q04DX003 (ip), vehicle: saline with Tween-80) 5 of 6; under setting [4], 1 of 6.

Turning to `CCc1nc2ccccc2[nH]1`, under setting [4], the survivor count is on record as 2 of 6.

As to `CCOP(OCC)SSCn1nc2ccc3ccccc3n2c1=O`, the survivor count is, setting by setting: under setting [5], 2 of 3; under setting [6], 2 of 3.

Take `Cc1ccccc1NC(=O)CS`: the survivor count under setting [4] is on record as 5 of 6.

For `CSc1nc(Cl)cc(-c2ccccc2)n1`, the survivor count (dose: 100.0 mg/kg/injection, schedule: Q01DX Z (ip), vehicle: methylcellulose (MC)) is on record as 6 of 6.

On to `NC(=O)c1cc(Cl)cc(Cl)c1N1CC[N+](CCCl)=N1`, for which the survivor count reads like this: (dose: 200.0 mg/kg/injection, schedule: Q01DX001 (ip), vehicle: saline with Tween-80) 2 of 6; (dose: 400.0 mg/kg/injection, schedule: Q01DX001 (ip), vehicle: saline with Tween-80) 1 of 6.

With `Oc1ccc2ccccc2c1Sc1c(O)ccc2ccccc12`, the survivor count under setting [4] is on record as 0 of 3.

Turning to `NC(=O)N/N=C1\CC2CCC1C2Cl` (stereo not given), the survivor count (dose: 150.0 mg/kg/injection, schedule: Q01DX001 (ip), vehicle: saline) is given as 2 of 6.

For `CCC[As](=O)(O)Cc1ccccc1C`, the survivor count (dose: 6.25 mg/kg/injection, schedule: Q04DX002 (ip), vehicle: saline with Tween-80) is recorded as 3 of 6; the survivor count (dose: 12.5 mg/kg/injection, schedule: Q01DX009 (ip), vehicle: saline with Tween-80) was 1 of 3; the survivor count (dose: 25.0 mg/kg/injection, schedule: Q01DX001 (ip), vehicle: saline with Tween-80) was 3 of 6; the survivor count (dose: 25.0 mg/kg/injection, schedule: Q01DX009 (ip), vehicle: saline with Tween-80) is recorded as 0 of 3; the survivor count (dose: 25.0 mg/kg/injection, schedule: Q04DX002 (ip), vehicle: saline with Tween-80) was 4 of 6; the survivor count (dose: 50.0 mg/kg/injection, schedule: Q01DX001 (ip), vehicle: saline with Tween-80) is listed as 0 of 6. The survivor count by setting is: (dose: 50.0 mg/kg/injection, schedule: Q01DX009 (ip), vehicle: saline with Tween-80) 0 of 3; (dose: 100.0 mg/kg/injection, schedule: Q01DX009 (ip), vehicle: saline with Tween-80) 0 of 3 and 0 of 6; under setting [3], 0 of 6; (dose: 400.0 mg/kg/injection, schedule: Q01DX009 (ip), vehicle: saline with Tween-80) 0 of 6.

Turning to `COC(=O)/C=C/C(=O)O`, the survivor count runs as follows: (dose: 150.0 mg/kg/injection, schedule: Q01DX001 (ip), vehicle: carboxymethylcellulose (CMC)) 5 of 6; under setting [7], 5 of 6.

Take `CC(C)CC1NC(=O)C(C(C)C)NC(=O)CC(C)COC(=O)C(CC(C)C)N(C)C(=O)C(C(C)C)NC(=O)C(C(C)C)OC1=O` (stereo not given): the survivor count under setting [7] was 1 of 6.

Turning to `CCC(C)C(CO)c1ccccc1` (stereo not given), the survivor count under setting [4] is recorded as 0 of 6.

On to `CCc1nc2nnnn2c(CC)c1-c1ccccc1O`, for which the survivor count runs as follows: under setting [8], 3 of 3; under setting [9], 3 of 3; under setting [10], 3 of 3.

Take `O=C1c2ccccc2C(=O)C2OC12` (stereo not given): the survivor count is given as 3 of 3 under setting [8], 0 of 3 under setting [9] and 0 of 3 under setting [10].

Regarding `c1nc2c([nH]1)CCCCC2`, the survivor count (dose: 75.0 mg/kg/injection, schedule: Q04DX003 (ip), vehicle: other) was 0 of 6; the survivor count (dose: 100.0 mg/kg/injection, schedule: Q01DX009 (ip), vehicle: other) was 0 of 3 and 0 of 6; the survivor count (dose: 100.0 mg/kg/injection, schedule: Q04DX002 (ip), vehicle: saline with Tween-80) was 0 of 3 and 0 of 6; the survivor count (dose: 150.0 mg/kg/injection, schedule: Q04DX003 (ip), vehicle: other) is 0 of 6; the survivor count (dose: 200.0 mg/kg/injection, schedule: Q04DX002 (ip), vehicle: saline with Tween-80) is 0 of 3 and 0 of 6; the survivor count (dose: 300.0 mg/kg/injection, schedule: Q04DX003 (ip), vehicle: other) was 0 of 6. Further, the survivor count (dose: 400.0 mg/kg/injection, schedule: Q04DX002 (ip), vehicle: saline with Tween-80) is 0 of 3 and 0 of 6.

On to `Cc1cc2ccccc2[n+](C)c1-c1ccccc1Cl`, for which the survivor count is reported as 0 of 6 (dose: 25.0 mg/kg/injection, schedule: Q04DX003 (ip), vehicle: saline) and 0 of 6 (dose: 50.0 mg/kg/injection, schedule: Q04DX003 (ip), vehicle: saline).

On to `O=C(COc1ccc(Cl)cc1Cl)Nc1ccc2ccccc2c1`, for which the survivor count under setting [11] was 3 of 3.

With `c1ccc2c(c1)Sc1ccccc1N2CCCN1CCCC1`, the survivor count by setting is: (dose: 100.0 mg/kg/injection, schedule: Q04DX003 (ip), vehicle: saline) 3 of 6; under setting [1], 0 of 3 and 0 of 4; under setting [2], 0 of 4.

As for `C=CC(=O)O` (tested in a mixture with another compound), under “dose: 200.0 mg/kg/injection, schedule: Q01DX Z (ip), vehicle: saline”, the survivor count is reported as 0 of 6.

In the case of `O=c1cc(O)nc[nH]1`, for the setting “dose: 750.0 mg/kg/injection, schedule: Q01DX Z (oral), vehicle: methylcellulose (MC)”, the survivor count was 6 of 6.

Consider `COC1/C=C/OC2(C)Oc3c(C)c(O)c4c(O)c(c(/C=N/N5CCN(Cc6ccccc6)CC5)c(O)c4c3C2=O)NC(=O)C(C)=C/C=C/C(C)C(O)C(C)C(O)C(C)C(OC(C)=O)C1C` (stereo not given), for which the survivor count is, setting by setting: under setting [5], 8 of 10; under setting [6], 0 of 9; (dose: 400.0 mg/kg/injection, schedule: Q01DX009 (ip), vehicle: Klucel (hydroxypropylcellulose) (HPC)) 0 of 10.

As to `CC(=O)NNc1ccccc1Cl`, the survivor count (dose: 400.0 mg/kg/injection, schedule: Q04DX003 (ip), vehicle: Klucel (hydroxypropylcellulose) (HPC)) is on record as 6 of 6.

For `CC(C)CC(NC(=O)C(F)(F)F)C(=O)O` (stereo not given), the survivor count under setting [4] is reported as 4 of 6.

Take `ON=C1CSSC1`: the survivor count (dose: 25.0 mg/kg/injection, schedule: Q04DX003 (ip), vehicle: saline with Tween-80) is given as 0 of 6 and the survivor count (dose: 50.0 mg/kg/injection, schedule: Q04DX003 (ip), vehicle: saline with Tween-80) is recorded as 0 of 6.

As for `CCNCCNCC(Cc1ccccc1)c1ccccc1` (stereo not given), the survivor count is, setting by setting: under setting [11], 0 of 3; (dose: 400.0 mg/kg/injection, schedule: Q04DX002 (ip), vehicle: saline) 0 of 3.

Consider `CCC(C)C(CN)(CCCCN1CCOCC1)c1cccc2ccccc12` (stereo not given), for which, under setting [4], the survivor count is listed as 6 of 6.

Values taken from PubChem BioAssay AID248 (DTP/NCI, 2004).
